Assay [1] deals with IL-1β. Briefly: LPS-stimulated PBMC cytokine production in vitro: IL-1β (ECL). The format is cell-based. To be noted: Homo sapiens, LPS 10 ng/ml, 24 h. On the procedure: Samples of peripheral blood or buffy coats from healthy volunteers were used. […] At the end of the treatment the pro-inflammatory cytokines TNFα, IL-1β were measured by means of an electrochemiluminescence assay (ECL) using specific commercial antibodies.
The effect of the various doses of SAHA and TSA was measured as the percentage inhibition of production of the cytokine in question compared with untreated control cells. The concentration able to induce 50% inhibition of cell growth (IC50) was determined by linear regression.

For assay [2], the system named is IFNγ. Briefly: LPS-stimulated PBMC cytokine production in vitro: IFNγ (ELISA). To be noted: Homo sapiens, 24 h, read-out: IFNγ IC50.

Data on 1 compound can be found in patent US20040157930A1, “Histone deacetylase enzyme-inhibiting derivatives of hydroxamic acid as new cytokine synthesis-inhibiting anti-inflammatory drugs” (priority 2001, published 2004).

One may read the IC50 as the concentration that gives 50% inhibition.

The structures appear in SMILES notation.

For `O=C(CCCCCCC(=O)Nc1ccccc1)NO` [SAHA, suberoylanilide hydroxamic acid], the IC50 came to 100 nM in assay [1] and 50 nM in assay [2].
